# Measured values taken from PubChem BioAssay AID1347075 (National Center for Advancing Translational Sciences (NCATS), 2019).
# Among all 400,000 compounds or so, about 5,500 (1.4%) were called active. Inconclusive means that the source gave no clear call. Such entries were picked first, then a sample of the others. Calls follow the shape of the dose curve; as a rule, active = well fitted cell-killing curve with a large enough effect; inconclusive = small, poorly fitted or top-dose-only effect, or effect the other way; inactive = flat fitted curve, though single readings scatter. Potencies beside an inconclusive call are fits to weak or partial responses and may not hold up.
# Test: qHTS assay for MDR1-selective chemotherapeutics: Primary screen using the parental adenocarcinoma cell KB-3-1; also: nearly all actives have a fitted effect of over 60% in size
# Conditions: KB-3-1 viability, CellTiter-Glo ATP luminescence, 72 h; activity change, negative = cytotoxic: at 46.1 µM (top of the series)
# How it was run: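 Parental KB-3-1 adenocarcinoma cells in phenol-red-free DMEM with 10% FBS were pin-treated with compounds at several concentrations, incubated 72 h at 37 °C, and viability read by CellTiter-Glo luminescence; concentration-effect curves were fitted after normalization.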
# % is scaled to controls: 0 for no effect and ±100 for the full control effect; potency is read from the fitted curve at half-maximal effect.
SMILES,Potency,"activity change, negative = cytotoxic"
Cc1ccc(S(=O)(=O)N2CCN(CC(=O)N/N=C/c3cc([N+](=O)[O-])ccc3Cl)CC2)cc1,"inconclusive: 16.4 µM [rising, partial curve, poor fit]",–
Cc1cccc(N(Cc2cc3ccccc3[nH]c2=O)S(=O)(=O)c2ccccc2)c1,"inconclusive: 29.1 µM [cytotoxic, single point]",–
COc1ccc(C(=O)Nc2cc3c4c(c2)C(C)C(=O)N4CCC3)cc1OC (centres undefined),"inconclusive: 2.91 µM [rising, full curve, poor fit]",–
CC(=O)Oc1c(-c2ccc(Br)o2)oc2ccccc2c1=O,"inconclusive: 18.4 µM [cytotoxic, single point]",–
Cc1cccc(-c2nn3c(=O)cc(CN4CCN(S(=O)(=O)c5ccc(Cl)cc5)CC4)nc3s2)c1,inactive,–
CCN(CC)C(=O)[C@H]1C[C@H](CC(=O)NC/C=C(\C)CCC=C(C)C)C(=O)N2CCc3c([nH]c4cc(CCC(=O)N(C)C)ccc34)[C@]12C,"inconclusive: 23.1 µM [cytotoxic, single point]",–
Oc1ccc(Br)cc1/C=N/n1c(COc2ccccc2)n[nH]c1=S,"inconclusive: 13 µM [rising, partial curve]",–
O=C(/C=C/c1ccccc1Cl)c1ccccc(=O)c1O,active: 20.6 µM,–
OC(CNCCC1C=Nc2ccccc21)Cn1c2ccc(Cl)cc2c2cc(Cl)ccc21 (centres undefined),"inconclusive: 29.1 µM [cytotoxic, single point]",–
CC(C)Cn1c(N)c(C(=O)COC(=O)c2c(F)cccc2F)c(=O)n(C)c1=O,"inconclusive: 20.6 µM [cytotoxic, partial curve]",–
CCOc1ccc(/C=N/NC(=O)c2[nH]c3ccc(C)cc3c2C)cc1,inactive,–
CCOc1ccc(CNC(=O)c2ccc(NC(=O)N3CCCCc4ccccc43)cc2)cc1OC,inactive,–
COc1ccc(NC(=O)C2CCN(c3nc(C)nc4c3CCC4)CC2)cc1,"inconclusive: 0.651 µM [cytotoxic, full curve, poor fit]",–
Cc1cccc(N2CCN(C(=O)c3cccc(S(=O)(=O)N4CCCCC4)c3)CC2)c1C,"inconclusive: 20.6 µM [cytotoxic, single point]",–
CCOC(=O)c1cc(-c2ccccc2)n(CCC(=O)Nc2ccc(Cl)c(C(F)(F)F)c2)c1C,"inconclusive: 18.4 µM [cytotoxic, single point]",–
Cc1ccc(OCCNC(=O)c2ccc3ccccc3n2)cc1,"inconclusive: 0.0073 µM [cytotoxic, full curve, poor fit]",–
Cc1c(/C=N/NC(=O)COc2ccccc2[N+](=O)[O-])c2ccccc2n1C,"inconclusive: 29.1 µM [cytotoxic, partial curve, poor fit]",–
Cc1cc(C)c2c(c1)/C(=c1/sc3n(c1=O)CN(c1ccccc1)CN=3)C(=O)N2,"inconclusive: 18.4 µM [cytotoxic, single point]",–
Cc1ccc2c(c1)S/C(=C/c1ccc[n+](CCO)c1)N2C,active: 2.59 µM,–
COc1ccc(NC(=O)C2CCCN(S(=O)(=O)c3ccc4c(c3)CCCN4C(C)=O)C2)cc1Cl (centres undefined),–,inconclusive: -25.3%
Cc1cc(-c2nnc3n2CCCCC3)c(C)n1-c1ccccc1,"inconclusive: 29.1 µM [cytotoxic, single point]",–
COc1ccc(-n2nnnc2C(c2ccnc3ccccc23)N2CCN(C/C=C/c3ccccc3)CC2)cc1 (centres undefined),"inconclusive: 20.6 µM [cytotoxic, single point]",–

SMILES,Potency,"activity change, negative = cytotoxic"
CC(C)c1ccc2c(c1)C(N1CCNCC1)Cc1ccc(F)cc1S2 (centres undefined),"inconclusive: 32.6 µM [cytotoxic, single point]",–
Cc1ccc2c(C)[nH]c(=O)cc2c1,"inconclusive: 20.6 µM [cytotoxic, single point]",–
CCc1nnc(NC(=O)c2nc(SCc3ccccc3C)ncc2Cl)s1,inactive,–
O=C(CNC(=O)C(c1ccccc1)c1ccccc1)N/N=C/c1ccc(O)cc1O,"inconclusive: 29.1 µM [cytotoxic, single point]",–
Cc1ccc(S(=O)(=O)NC(CCc2ccccc2)CC(=O)C(C)(C)C)cc1 (centres undefined),"inconclusive: 29.1 µM [cytotoxic, single point]",–
Clc1ccc(-c2csc(NNC3=NCCCCC3)n2)cc1,"inconclusive: 18.4 µM [cytotoxic, single point]",–
COc1ccccc1C(=O)NCCC(=O)N1CCN(C(=O)c2ccco2)CC1,"inconclusive: 29.1 µM [rising, single point]",–
CCCC(=O)NCC(c1ccc2c(c1)OCO2)N1CCN(c2ccccc2)CC1 (centres undefined),inactive,–
O=C(CSc1cccc[n+]1[O-])c1ccc(-c2ccccc2)cc1,"inconclusive: 32.6 µM [cytotoxic, single point]",–
CCOC(=O)C1(C)CCCN1C(=O)c1sccc1C (centres undefined),–,inconclusive: -21%
Brc1ccc(-c2c[n+]3c(n2-c2ccccc2)SCC3)cc1,"inconclusive: 29.1 µM [cytotoxic, single point]",–
CC1CN(C(=O)C(C)N2C(=O)c3ccccc3C2=O)CC(C)O1 (centres undefined),"inconclusive: 0.651 µM [cytotoxic, full curve]",–
CCCn1c(SCC(=O)Nc2ccc3c(c2)OCO3)nc2c1c(=O)n(C)c(=O)n2C,inactive,–
COc1ccccc1C1CC(=O)Nc2cc3c(cc21)OCCO3 (centres undefined),"inconclusive: 6.51 µM [cytotoxic, partial curve, poor fit]",–
CCc1ccccc1NC(=O)CN(C)C(=O)COc1ccc(C)nc1[N+](=O)[O-],"inconclusive: 20.6 µM [rising, single point]",–
Cc1onc(-c2ccc(F)cc2F)c1C(=O)Nc1cccc(C(F)(F)F)c1,"inconclusive: 29.1 µM [cytotoxic, single point]",–
CC(C)(C)OC(=O)N(Cc1ccccc1)Cc1ccccc1OCc1cccc(NC(=O)C2CCC2)c1,"inconclusive: 29.1 µM [cytotoxic, single point]",–
CCC(CO)Oc1cc(NCc2ccc(C(C)(C)C)cc2)c2ncn(C(C)C)c2c1 (centres undefined),"inconclusive: 29.1 µM [cytotoxic, single point]",–
Cc1ccc(N(CC#N)C(=O)CS(=O)(=O)c2cccc([N+](=O)[O-])c2)cc1,"inconclusive: 0.206 µM [cytotoxic, full curve]",–
CCc1ccc(CNC(=O)c2cc(-c3ccc(Br)s3)nc3ccccc23)cc1,inactive,–
CC(=O)/C=C/c1ccccc1Oc1c(F)c(F)nc(F)c1F,"inconclusive: 29.1 µM [cytotoxic, single point]",–
COc1ccc(NC(=O)Cn2nnc(-c3ccccc3)c2COc2ccc3ccccc3c2)cn1,"inconclusive: 29.1 µM [cytotoxic, single point]",–

SMILES,Potency,"activity change, negative = cytotoxic"
Cc1ccc(C)c(S(=O)(=O)C(C#N)c2nc3ccccc3nc2N2CC(C)OC(C)C2)c1 (centres undefined),active: 18.4 µM,–
COc1cccc(C(C(=O)NCc2ccccc2)N2CCN(CCN3CCOCC3)CC2)c1OC (centres undefined),inactive,–
CC(C)c1ccc(C2=C(O)c3ccccc3C(=O)C2=O)cc1,"inconclusive: 29.1 µM [cytotoxic, single point]",–
O=C(/C=C/c1cccs1)NC(=S)NNC(=O)Cc1cccs1,"inconclusive: 29.1 µM [cytotoxic, single point]",–
O=S(=O)(Nc1nc2ccccc2nc1NCc1ccco1)c1cccs1,inactive,–
c1csc(-c2nc(CN3CCSCC3)cs2)c1,"inconclusive: 16.4 µM [cytotoxic, partial curve, poor fit]",–
COc1ccc(CCNC(=O)c2c(C)nn(-c3ccc(F)cc3)c2-n2cccc2)cc1OC,active: 5.8 µM,–
O=C(NCCc1nc2ccccc2n1CCO)C1CCCCC1,"inconclusive: 8.2 µM [rising, partial curve]",–
Cc1ccc(S(=O)(=O)CCC(=O)OC2CC(C)OC2=O)cc1 (centres undefined),inactive,–
COc1ccc(OCCSc2nnc(CCNC(=O)c3ccc(OC)cc3)n2C)cc1,inactive,–
COc1cc(OC)c(N(C)S(=O)(=O)c2cccc(C(=O)Nc3nccs3)c2)cc1Cl,"inconclusive: 32.6 µM [cytotoxic, single point]",–
O=C(NN=Cc1c(O)ccc2ccccc12)C1CC1,"inconclusive: 7.31 µM [cytotoxic, partial curve]",–
C=CC[C@]12CC=CC(=O)[C@@]1(O)O[C@H](c1ccc(OC)c(OC)c1)[C@H]2C,"inconclusive: 29.1 µM [cytotoxic, single point]",–
C/C(=C\[C@@H](NP(=O)(c1ccccc1)c1ccccc1)c1ccccc1)CO[Si](c1ccccc1)(c1ccccc1)C(C)(C)C,"inconclusive: 29.1 µM [cytotoxic, single point]",–
CC(C)Cn1c(N)c(C(=O)COC(=O)c2ccc(O)cc2)c(=O)n(C)c1=O,"inconclusive: 18.4 µM [cytotoxic, single point]",–
O=C(c1ncc[nH]1)c1ccccc1C(=O)N1CCOCC1,"inconclusive: 29.1 µM [cytotoxic, single point]",–
CCc1nc(N2CCN(C(=S)NCCCOC)CC2)c2c3c(sc2n1)CCCC3,"inconclusive: 23.1 µM [cytotoxic, single point]",–
C=CCN(CC=C)S(=O)(=O)c1ccc(NC(=S)NC(=O)/C=C/c2cccc3ccccc23)cc1,"inconclusive: 23.1 µM [cytotoxic, single point]",–
COc1ccc(-c2nnc3c4ccccc4c(C)nn23)cc1S(=O)(=O)N1CCN(CCO)CC1,"inconclusive: 9.2 µM [rising, partial curve, poor fit]",–
COc1ccc(CNC(=O)c2cn(Cc3ccc(S(=O)(=O)N(C)C)cc3)c(=O)s2)cc1,"inconclusive: 8.2 µM [cytotoxic, partial curve]",–

# Part of the list above, as tab-separated lines:
SMILES	Potency	activity change, negative = cytotoxic
CC(C)c1ccc2c(c1)C(N1CCNCC1)Cc1ccc(F)cc1S2 (centres undefined)	inconclusive: 32.6 µM [cytotoxic, single point]	–
Cc1ccc2c(C)[nH]c(=O)cc2c1	inconclusive: 20.6 µM [cytotoxic, single point]	–
